The other results are listed elsewhere or left out. Shown are side measurements of this screen, not its main read-out; they come without a call. Compounds called inactive in the main read-out are mostly missing here. Words in brackets tell the shape of the fitted curve; partial curves, single points and poor fits give uncertain potencies.
Assay: qHTS Assay for Lipid Storage Modulators in Drosophila S3 Cells;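 as to cell number change: cells counted by Cell Tracker Red CMTPX staining in the red channel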
Conditions: BODIPY lipid droplet fluorescence, 18-24 h; for cell number change: measured here: cell count max response, cells fed with added oleic acid
In short: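 Drosophila S3 cells loaded with oleic acid (400 uM, as added) and compounds at several concentrations; lipid droplets imaged by 488-nm laser-scanning cytometry, 500–530 nm intensity and object ratio to cell channel. Percent activity normalized to 20 uM Triacsin C.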

[1] = measured here: cell number channel AC50, cells fed with added oleic acid
[2] = measured here: lipid fluorescence (Fed channel) AC50, cells fed with added oleic acid

| SMILES | cell number change | AC50 [1] | AC50 [2] |
| --- | --- | --- | --- |
| O=C(CSc1nnc(-c2ccc3c(c2)OCCO3)o1)NC1CCCCC1 | -66.9% | 5.8 µM [falling, full curve] | 0.0082 µM [falling, full curve, poor fit] |
| CC[C@H](C)[C@H](NC(=O)OCc1ccccc1)C(=O)OCC(=O)Nc1ccc(N2CCOCC2)cc1 | 35.5% | 5.8 µM [rising, full curve] | – |
| CCOC(=O)c1c(C)c2c(n1C)CCC/C2=N\O | 74.3% | 1.46 µM [rising, full curve] | 0.731 µM [rising, full curve] |
| CC(Sc1nnc(Cc2ccccc2)n1C)C(=O)NC1CC1 (configuration not stated) | 13.3% | – | 0.0517 µM [rising, full curve] |
| CC(=O)c1nn(-c2ccc(Br)cc2)cc1C(=O)c1ccccc1 | 13.9% | 1.84 µM [rising, partial curve, poor fit] | 2.59 µM [rising, full curve] |
| Cc1ccccc1CN1CCN(Cc2ccc3cccc(F)c3n2)CC1CCO (configuration not stated) | -8.24% | – | – |
| Cc1ccc(C(=O)NC2CCN(S(=O)(=O)c3ccc(F)cc3)CC2)cc1 | 11.4% | – | 29.1 µM [rising, single point] |
| Cc1ccc(C(=O)CSc2nnc3c4ccccc4nc(Cc4ccccc4)n23)cc1 | 23% | – | 2.91 µM [rising, partial curve] |
| O=C(NCCCN1CCN(c2ccccc2F)CC1)C1CCCN(S(=O)(=O)c2cnc[nH]2)C1 (configuration not stated) | 31.8% | 20.6 µM [rising, single point] | 1.16 µM [rising, single point] |
| CCOC(=O)c1cc(-c2ccc([N+](=O)[O-])cc2)nc2c1c(=O)[nH]c(=O)n2Cc1ccccc1 | -30.3% | 18.4 µM [falling, single point] | – |
| O=[N+]([O-])c1ccc(/C=N/NC(=S)Nc2ccccc2)o1 | -23.6% | – | 11.6 µM [falling, partial curve] |
| CC(C)c1ccc(/C=C2\CC/C(=C\C=N\N(C)C)C2=O)cc1 | 440% | 29.1 µM [rising, single point] | 29.1 µM [rising, single point] |
| O=C1CCCN1CCCNc1nc2c(S(=O)(=O)c3ccc(Br)cc3)nnn2c2ccccc12 | -22.4% | – | 3.26 µM [falling, full curve] |
| O=C1CC(c2cccc(Cl)c2)C(n2cncn2)C(=O)C1C1NCCc2ccccc21 (configuration not stated) | -8.02% | – | – |
| CCC1CCCCN1c1nc(-c2ccncc2)nc2ccccc12 (configuration not stated) | 14.9% | – | 5.17 µM [rising, single point] |
| CSc1nc2sc3c(c2c2nnnn12)CCC3 | 3.63% | – | 7.31 µM [rising, partial curve] |
| CN(C)c1ccc(/C=N/n2c(-c3ccccc3Br)n[nH]c2=S)cc1 | 17.3% | – | 29.1 µM [rising, single point] |
| O=C(COC(=O)CCC1CCCC1)Nc1cc(S(=O)(=O)N2CCOCC2)ccc1Cl | -26.1% | – | – |
| COc1cccc(NC(=O)C2CCN(S(C)(=O)=O)CC2)c1 | -3.17% | – | 4.11 µM [falling, full curve] |
| Cc1ccc(C(=O)N2CCN(c3ncccn3)CC2)cc1 | 22.5% | – | – |

Part of the list above, bar-delimited.
SMILES | cell number change | AC50 [1] | AC50 [2]
O=[N+]([O-])c1ccc(/C=N/NC(=S)Nc2ccccc2)o1 | -23.6% | – | 11.6 µM [falling, partial curve]
CC(C)c1ccc(/C=C2\CC/C(=C\C=N\N(C)C)C2=O)cc1 | 440% | 29.1 µM [rising, single point] | 29.1 µM [rising, single point]
O=C1CCCN1CCCNc1nc2c(S(=O)(=O)c3ccc(Br)cc3)nnn2c2ccccc12 | -22.4% | – | 3.26 µM [falling, full curve]
O=C1CC(c2cccc(Cl)c2)C(n2cncn2)C(=O)C1C1NCCc2ccccc21 (configuration not stated) | -8.02% | – | –
CCC1CCCCN1c1nc(-c2ccncc2)nc2ccccc12 (configuration not stated) | 14.9% | – | 5.17 µM [rising, single point]

Later entries

| SMILES | cell number change | AC50 [1] | AC50 [2] |
| --- | --- | --- | --- |
| COCC(=O)NNS(=O)(=O)c1ccccc1[N+](=O)[O-] | -13.9% | – | 3.26 µM [falling, partial curve, poor fit] |
| COc1cc2c(cc1OC)CN(Cc1cccs1)CC2 | 29.9% | – | – |
| CCOc1ccc(NC(=O)NCC2CCN(c3ccc(OC)cc3)C2)cc1 (configuration not stated) | -1.45% | – | 1.64 µM [falling, partial curve, poor fit] |
| Cc1ccc2oc(-c3ccc(C)c(NC(=S)NC(=O)c4cccs4)c3)nc2c1 | -26.3% | – | 14.6 µM [falling, single point] |
| CCN(CC(=O)Nc1ccc(NC(C)=O)cc1)Cc1c(O)ccc2cc(Br)ccc12 | 14.9% | – | – |
| O=C(COc1ccc(Cl)cc1Cl)N/N=C/c1ccccn1 | -16.5% | – | – |
| CC(=O)Nc1ccc(NC(=O)c2cccc3ccccc23)cc1 | 12.2% | – | – |
| COc1ccc(N/C=C2\CCc3ccccc3C2=O)cc1 | -21.2% | – | 0.00517 µM [falling, full curve, poor fit] |
| CCN(CCO)C(=S)Nc1cc(S(=O)(=O)N(C)C)ccc1C | -58.6% | 0.184 µM [falling, full curve, poor fit] | 0.58 µM [rising, single point] |
| Cn1c(=O)c2cc(S(=O)(=O)NC(C(=O)N3CCCCCC3)c3ccccc3)ccc2n(C)c1=O (configuration not stated) | -22.7% | – | 16.4 µM [falling, single point] |
| O=C(NC1CCN(Cc2ccccc2)CC1)c1ccc(S(=O)(=O)NCc2ccco2)cc1 | – | 0.00461 µM [rising, full curve, poor fit] | – |
| COc1ccc([C@H]2CC(=O)C=C(c3ccc(C(=O)O)cc3)C2)cc1OC | -10.3% | 0.00517 µM [falling, full curve, poor fit] | 0.00461 µM [falling, full curve, poor fit] |
| Cc1ccc(N2CCN(CC(O)COc3cccc4ccccc34)CC2)cc1 (configuration not stated) | -29.6% | 0.651 µM [falling, full curve, poor fit] | 16.4 µM [falling, single point] |
| O=C(NCCN1CCCCCC1)c1ccc(N2CCCC2=O)cc1 | -10.2% | 1.16 µM [falling, full curve, poor fit] | 1.46 µM [falling, partial curve] |
| COCCCN1CCN(C2Cc3ccccc3Sc3ccc(Cl)cc32)CC1 (configuration not stated) | -23.9% | 0.092 µM [rising, full curve, poor fit] | – |
| COc1ccc(CCn2nnnc2C(c2ccccc2)N2CCN(C)CC2)cc1OC (configuration not stated) | -15.1% | 3.66 µM [falling, single point] | 4.61 µM [falling, single point] |
| CCC(c1nnnn1CCOC)N1CCN(C(=O)c2ccco2)CC1 (configuration not stated) | -3.52% | – | 0.00461 µM [falling, full curve, poor fit] |
| O=C(Nc1ccc(F)c([N+](=O)[O-])c1)c1cccs1 | -18.7% | – | 1.16 µM [falling, full curve] |
| Cc1ccc(-c2csc(NC(=O)CCCc3cccs3)n2)cc1 | 23.8% | – | 16.4 µM [rising, partial curve, poor fit] |
| COc1ccccc1N1CCN(S(=O)(=O)c2ccc(-c3cnc(C4CC4)o3)cc2)CC1 | – | – | 14.6 µM [falling, partial curve, poor fit] |

| SMILES | cell number change | AC50 [1] | AC50 [2] |
| --- | --- | --- | --- |
| Cc1occc1-c1nnc(SCC(=O)N2CCCCC2)n1C | -12.9% | – | – |
| CCOC(=O)Oc1ccc2c(=O)c(Oc3cccc(C)c3)coc2c1 | -19% | – | 1.64 µM [falling, full curve, poor fit] |
| CCOCCCNC(=O)C1(O)c2ccccc2NC(=O)N1c1ccc(C)c(C)c1 (configuration not stated) | 30.4% | 1.3 µM [rising, partial curve, poor fit] | – |
| O=C(COC(=O)c1cccnc1)Nc1cccc(Cl)c1 | -21.7% | 1.16 µM [falling, single point] | 1.16 µM [falling, full curve] |
| O=C(NCC(c1ccco1)N1CCc2ccccc2C1)c1cccc([N+](=O)[O-])c1 (configuration not stated) | 33% | 9.2 µM [rising, partial curve] | 13 µM [rising, partial curve] |
| O=C(CN1C(=O)c2ccccc2C1=O)NCc1ccccn1 | -6.18% | – | 0.00461 µM [falling, full curve, poor fit] |
| C=CCOC(=O)C1=C(C)NC(C)=C(C(=O)OCC=C)C1c1ccc(O)cc1 | -24.5% | – | 29.1 µM [falling, single point] |
| C[C@@H](CN=[N+]=[N-])CN1CC[C@H](NC(=O)OCc2ccccc2)CCC1=O | 2.1% | – | 16.4 µM [falling, single point] |
| CC(C)OC(=O)C[N+](C)(C)CCN1C(=O)C2C(c3ccccc3)C=CC(c3ccccc3)C2C1=O (configuration not stated) | 23.9% | – | 0.461 µM [falling, single point] |
| CCCCOc1ccc(C(=O)N(CC)CC(=O)NCc2cccs2)cc1 | 27.6% | – | 10.3 µM [rising, partial curve] |
| Cc1cc(Cl)ccc1OCC(=O)OCC(=O)N1CCC(C(N)=O)CC1 | -67.3% | 29.1 µM [falling, single point] | 3.26 µM [falling, single point] |
| COCc1cccc(C(=O)NC(c2ccccc2)c2ccccc2)c1 | -9.52% | – | – |
| O=C(N/N=C/c1ccc(Cl)c([N+](=O)[O-])c1)C1CC1 | 10.9% | – | – |
| O=C(N/N=C/c1ccc(N2CCOCC2)cc1)c1cccs1 | – | 6.51 µM [rising, single point] | 6.51 µM [rising, partial curve, poor fit] |
| COc1ccc(CCN(C)C(=O)c2ccc(S(=O)(=O)Nc3ccccc3C)cc2)cc1OC | 32.4% | 1.84 µM [rising, full curve, poor fit] | – |
| O=C(O)C1CC(=O)N(Cc2cccnc2)C1 (configuration not stated) | -0.561% | – | 0.0058 µM [falling, full curve, poor fit] |
| COc1ccc(C[C@H]2CN3C(=NC[C@@H]3Cc3ccccc3)N2C[C@H](C)NC(=O)CCC2CCCCC2)cc1 | -38.8% | 18.4 µM [falling, partial curve] | 18.4 µM [falling, single point] |
| Cc1cccc(C(=O)N/N=C/c2cc(Br)c(Br)o2)c1 | -2.76% | – | 6.51 µM [falling, single point] |

Source: PubChem BioAssay AID2685 (National Center for Advancing Translational Sciences (NCATS), 2010)
